Data as given in PubChem BioAssay AID1259261 (Sanger Institute, 2017)
Purpose: 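Kinase knock-downs that kill colorectal cancer cells or boost targeted drugs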 (primary screen). Cell system: HCC2998 human colorectal cancer cells. Reagent: siRNA pool against human genes. Conditions: anchor drugs BYL719 1 µM, cetuximab 5 µg/ml or trametinib 10 nM, each compared with DMSO vehicle. Read-out: 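Cell viability relative to non-targeting siRNA, averaged over replicates, with robust z-score for siRNA alone and synergy scores with each anchor drug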. Reading the numbers: viability z-score, knock-down alone: higher = more viable cells than controls; viability fraction, knock-down alone: higher = more viable cells; synergy score with BYL719: higher = stronger combined killing with BYL719; synergy score with trametinib: higher = stronger combined killing with trametinib; synergy score with cetuximab: higher = stronger combined killing with cetuximab. Call rule: 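Essential when the siRNA-alone viability robust z-score is below -3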. Meaning of the calls: active = essential; inactive = no change.
Here is one part, drawn at random, of 794 reagents tested. 10 of all reagents (1.3%) were called active. 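Calls reflect knock-down alone without drug; synergy scores with BYL719, cetuximab or trametinib do not affect calls.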 No viability above 1 is reported: the scale is capped. Reagent sequences are not shown. The record does not give: the amount of reagent, the time to read-out.

| target gene | viability z-score, knock-down alone | viability fraction, knock-down alone | synergy score with BYL719 | synergy score with trametinib | synergy score with cetuximab | outcome |
| --- | --- | --- | --- | --- | --- | --- |
| CDK17 (cyclin dependent kinase 17) | -0.177 | 0.827 | -0.0039 | 0.00878 | -0.0576 | inactive |
| EEF2K (eukaryotic elongation factor 2 kinase) | -0.754 | 0.754 | -0.0907 | 0.0436 | -0.0232 | inactive |
| TNK2 (tyrosine kinase non receptor 2) | 1.04 | 0.979 | -0.0526 | 0.00745 | -0.0368 | inactive |
| PDK3 (pyruvate dehydrogenase kinase 3) | -1.18 | 0.701 | -0.0437 | 0.0377 | -0.0831 | inactive |
| ACO1 (aconitase 1) | -0.0589 | 0.841 | 0.0561 | 0.0177 | -0.108 | inactive |
| CDK8 (cyclin dependent kinase 8) | 1.05 | 0.981 | -0.126 | -0.0931 | -0.00835 | inactive |
| TEK (TEK receptor tyrosine kinase) | 1.21 | 1 | -0.0951 | 0.0528 | -0.0432 | inactive |
| MECOM (MDS1 and EVI1 complex locus) | 0.13 | 0.865 | -0.0949 | -0.00257 | -0.0756 | inactive |
| ERBB3 (erb-b2 receptor tyrosine kinase 3) | 0.00162 | 0.849 | 0.0374 | 0.0996 | -0.0534 | inactive |
| IP6K2 (inositol hexakisphosphate kinase 2) | -0.502 | 0.786 | -0.0475 | 0.154 | -0.0941 | inactive |
| CSNK2A2 (casein kinase 2 alpha 2) | 0.0888 | 0.86 | 0.0553 | 0.181 | 0.0372 | inactive |
| BRDT (bromodomain testis associated) | -1.11 | 0.71 | -0.156 | 0.0128 | -0.158 | inactive |
| CDKN1A (cyclin dependent kinase inhibitor 1A) | 1.21 | 1 | -0.00905 | -0.0398 | -0.0177 | inactive |
| EPHB3 (EPH receptor B3) | -0.379 | 0.801 | 0.0867 | 0.247 | 0.016 | inactive |
| NEK2 (NIMA related kinase 2) | 0.146 | 0.867 | -0.0749 | 0.0239 | -0.0406 | inactive |
| TRIB1 (tribbles pseudokinase 1) | 0.375 | 0.896 | -0.0384 | -0.0516 | -0.143 | inactive |
| CDKL1 (cyclin dependent kinase like 1) | 0.826 | 0.952 | -0.0546 | 0.138 | -0.057 | inactive |
| ALPK2 (alpha kinase 2) | -0.367 | 0.803 | -0.0559 | 0.0419 | 0.0571 | inactive |
| STK32B (serine/threonine kinase 32B) | -1.14 | 0.706 | -0.131 | -0.0595 | -0.152 | inactive |
| TYK2 (tyrosine kinase 2) | -1.33 | 0.682 | -0.0687 | 0.134 | -0.0105 | inactive |
| MAPK11 (mitogen-activated protein kinase 11) | -0.125 | 0.833 | 0.0253 | 0.0131 | -0.0116 | inactive |
| PFKFB4 (6-phosphofructo-2-kinase/fructose-2,6-biphosphatase 4) | -0.652 | 0.767 | -0.0948 | -0.081 | -0.266 | inactive |
| NLK (nemo like kinase) | 0.736 | 0.941 | -0.0748 | 0.118 | 0.00775 | inactive |
| FASTK (Fas activated serine/threonine kinase) | 1 | 0.975 | -0.0846 | 0.00315 | -0.0675 | inactive |
| DYRK1A | 0.229 | 0.878 | -0.129 | 0.0655 | -0.0998 | inactive |
| MYLK2 (myosin light chain kinase 2) | -1.63 | 0.644 | -0.111 | 0.00156 | -0.0872 | inactive |
| PKIB (cAMP-dependent protein kinase inhibitor beta) | -0.336 | 0.807 | -0.0853 | -0.0337 | 0.0876 | inactive |
| CHKA (choline kinase alpha) | -0.581 | 0.776 | -0.0126 | 0.0273 | 0.0696 | inactive |
| KSR1 (kinase suppressor of ras 1) | -2.96 | 0.478 | 0.0216 | 0.101 | -0.115 | inactive |
| COMMD3 (COMM domain containing 3) | 1.21 | 1 | -0.0519 | -0.0769 | -0.0432 | inactive |
| PIP4K2B (phosphatidylinositol-5-phosphate 4-kinase type 2 beta) | 0.297 | 0.886 | -0.0273 | 0.0818 | -0.069 | inactive |
| KCNH2 (potassium voltage-gated channel subfamily H member 2) | -0.359 | 0.804 | -0.0593 | -0.0362 | 0.0468 | inactive |
| TSSK2 (testis specific serine kinase 2) | -2.05 | 0.592 | -0.00399 | -0.0669 | 0.0194 | inactive |
| MOK (MOK protein kinase) | 0.404 | 0.9 | -0.0432 | 0.0636 | -0.0567 | inactive |
| CDK5R2 (cyclin dependent kinase 5 regulatory subunit 2) | 0.426 | 0.902 | 0.00577 | -0.0867 | -0.0184 | inactive |
| PRPS1L1 (phosphoribosyl pyrophosphate synthetase 1 like 1) | 1.13 | 0.991 | 0.0269 | 0.0873 | -0.052 | inactive |
| AK7 (adenylate kinase 7) | 0.728 | 0.94 | -0.00275 | 0.0349 | 0.00302 | inactive |
| BRWD1 (bromodomain and WD repeat domain containing 1) | 0.376 | 0.896 | -0.0528 | -0.053 | -0.00533 | inactive |
| HIPK3 (homeodomain interacting protein kinase 3) | -0.333 | 0.807 | 0.0446 | -0.084 | 0.0679 | inactive |
| DGKH (diacylglycerol kinase eta) | 0.746 | 0.942 | -0.0493 | 0.00675 | -0.0401 | inactive |
| FES (FES proto-oncogene, tyrosine kinase) | -0.163 | 0.828 | -0.0632 | -0.0796 | -0.096 | inactive |
| RFK (riboflavin kinase) | -1.2 | 0.698 | -0.14 | 0.00119 | 0.0535 | inactive |
| CERK (ceramide kinase) | -0.361 | 0.804 | -0.0965 | 0.0729 | -0.056 | inactive |
| PKM (pyruvate kinase M1/2) | -0.538 | 0.781 | -0.112 | 0.0588 | -0.0375 | inactive |
| TWF2 (twinfilin actin binding protein 2) | -0.114 | 0.835 | 0.0828 | 0.132 | -0.0953 | inactive |
| KDR (kinase insert domain receptor) | 1.21 | 1 | -0.0871 | 0.0586 | -0.0432 | inactive |
| DGKG (diacylglycerol kinase gamma) | -0.0636 | 0.841 | -0.119 | 0.0421 | -0.0889 | inactive |
| PAK1 (p21 (RAC1) activated kinase 1) | -1.02 | 0.721 | 0.0152 | 0.0707 | -0.123 | inactive |
| FLT3 (fms related receptor tyrosine kinase 3) | -0.851 | 0.742 | -0.0783 | 0.0053 | -0.0567 | inactive |
| ABL1 (ABL proto-oncogene 1, non-receptor tyrosine kinase) | 0.86 | 0.957 | 0.0061 | 0.00767 | 0.00918 | inactive |
